From PubChem BioAssay AID1347423 (Functional Genomics Laboratory (NCATS/FGL), 2020)
The campaign covered roughly 52,000 sequences. About 210 (0.4%) were called active.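 The calls were made as follows: active = gene whose silencing raises cell survival under the drug, median off-target-corrected z-score across its silencing RNAs 2 or more; inactive = the rest.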 The list shows a part of the results.

test: Resistance to Poly (ADP-Ribose) Polymerase inhibitor: Gene Identification via Genome-wide siRNA Screen; details: mouse BRCA2 R2336H ES cells, olaparib, CellTiter-Glo viability; active compounds read high
Summary of the method: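 Genome-wide siRNA screen (3 siRNAs/gene, 20 nM) in mouse ES cells carrying hypomorphic BRCA2 R2336H; olaparib 500 nM added 48 h post-transfection, CellTiter-Glo viability 72 h later. Normalized to plate-median negative control; MAD z-scores, gene median, seed-adjusted.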

Sequence	z-score
GGGACCUUGAUCAAAACCUTT against Gp5	inactive: 1.77
GGCUGUUCUCUAGAUGAAUTT against 1810065E05Rik	inactive: 1.96
GGAUUUCGAGAAAAUCAACTT against Kctd4	inactive: -0.472
GGACUUGAUUUAGUGGAAGTT against BC003993	inactive: -2.74
CGAAACUGGUCUUUAUACUTT against Tigd4	inactive: 1
GCUCAAACACGUGUCGCACTT against D130074J02Rik	inactive: 1.23
CCAUAUGCAAGGAAUCUGCTT against Adam26	inactive: -0.415
GGAUGAAAGUCCAACCACATT against Tulp2	inactive: -1.09
GGUAAAAAACCAAGAACAATT against Ednrb	inactive: -0.0469
GCCAACUCAAGCAAUCUGCTT against D130072O21Rik	inactive: -0.0372
GGGACAACUUAGGUGCUGGTT against Slc12a9	inactive: 0.823
CCAGAACAUGUCCCUUCAATT against Rnase1	inactive: -1.14
GCUGUGUAUGUAUUUCAUGTT against Rnf128	inactive: 0.332
GGGAGACAGUUCUGCUGAATT against Rpl13	inactive: -3.3
GGUGGAAUGAUAGUGUUCATT against C230078M08Rik	inactive: -0.262
CCUAUGAGAAAUGCUGCCCTT against AY100450	inactive: 0.0084
GGGCAAGAACUACAUCUGCTT against Wdr18	inactive: -1.17
GCAUUUUGUUGUGCUAUAGTT against 6430550H21Rik	inactive: -0.35
GGCGCAGACACUCAGUUUGTT against C530044N13Rik	inactive: -0.247
GAACACCCUGCCGACCAAATT against Tmsb10	inactive: 1.47
GGAUACAUAUAGGUAGAAUTT against Gpr126	inactive: 1.69
GACCACUUCCUUCUAUGCCTT against Slc35c1	inactive: 0.324

Sequence	z-score
GGUCUUAUUUUGAAGUGUUTT against Cybb	inactive: -1.21
GGAUGUGCCCGAUAUUCCATT against Gtpbp1	inactive: 0.655
GCUGGAUCUUUGAAUGAGGTT against Olfr910	inactive: -0.405
GGCAAGAAUGGGAUAAUACTT against D16Ertd480e	inactive: -0.62
GGUUCUUCCCAGAAGGAGGTT against 4732496O08Rik	inactive: 0.861
GAUACGAGGAAAUCGUUAATT against Eef1a1	inactive: -1.78
CUUUGCUCUACCUUUCAGCTT against Olfr657	inactive: 0.64
GAGGGUGACCGCUUCAGAATT against Scn4b	inactive: 0.752
CGAUCAACAAGAAAAAGCUTT against Lcp1	inactive: 0.0129
CCAACGUGUCCUUGCUCAATT against Stk22s1	inactive: 0.671
CCUGAAGAGGAUGAUAUGGTT against D330028D13Rik	inactive: 1.43
GGCAAACAACUGAAUAAGGTT against Pbsn	inactive: 0.0819
CCUUACCUGCCCUAGCAAUTT against Lpd	inactive: 0.273
GGGAUGUUUUGUUUUUAACTT against Mlc1	inactive: -0.346
CCAUAUAUUAUGGACCUUATT against AI987662	inactive: -0.963
GGAUCUAUUUGGCAGAUUUTT against 4932702K14Rik	inactive: 0.174
GGACCAUGGAUAUUUAGCATT against Sms	inactive: -1.27
GCUGAAACCCUUCGUACAGTT against Prlpc3	inactive: 0.59
GGAGUUAUUAACUGAAGAGTT against Cyp2c55	inactive: 0.338
CCCACAUCAUUGAGAUUCUTT against Olfr1508	inactive: 0.349
GCCGUUCUGCUAUCACAACTT against Scrn2	inactive: 0.0402
GCUGACUGCUAAAAUCCAGTT against 2600017H08Rik	inactive: 0.76

Sequence	z-score
GGUAAAUCAGCCAUAGUUUTT against 7530404M11Rik	inactive: -1.07
GCAGAAGUAUUACUGGAUGTT against Olfr572	inactive: -0.569
GCUUGUUAUGUCACAUAUCTT against Pdcl3	inactive: -0.974
GGUCCAAGUCCGAAAAUAUTT against Gpr108	inactive: -2.91
GCCAUUUAUUCGUCUCUUCTT against 3321401G04Rik	inactive: 0.499
GGAAUUUCUGGAGAAACUUTT against Lypla2	inactive: -1.62
GUUUGGCCGAGUUCAUUUCTT against BC028278	inactive: -2.16
GGAUGACCUCAUGCUUAUUTT against 1700016G05Rik	inactive: -0.299
GGAAAAAGUUGCUCAAAAUTT against Mrps15	inactive: 0.42
CCACAUCCUGACUACUACATT against Sumo2	inactive: -3.56
GGGCUGUUCUACUUAGUUATT against 5830445C04Rik	inactive: 1.56
GGGUGUUAUUUUCUUCUAUTT against Stambp	inactive: 0.823
GCACAUAGCAUCCACUCCATT against LOC215714	inactive: 0.00803
GGGUUUAGACCAAUCCCUCTT against Adamts15	inactive: -0.186
GGUCACCUACUAUCACAAGTT against Kcnh7	inactive: -0.349
GUGUUCAAUAUACUGGCAATT against Klra10	inactive: -0.411
CGUUCUAUGGAAACUGGAGTT against Cte1	inactive: -0.602
GGGAAGAAUACUAUAGAUGTT against Slc12a2	inactive: 0.159
GGAGGUAAAAGAUGAGAAATT against 2810052M02Rik	inactive: -0.511
GCACAAUAAAGCUUGUUGCTT against Htf9c	inactive: -0.782
UCGAGGACAGCAUGAACAGTT against Rims4	inactive: 1.55
GGGAGAGCAGUUUGAAUGGTT against Usp27x	inactive: -0.515
